From the supplement of paper PMC10849652
The list shows a part of the results.

By UniProt entry, the sequences of proteins in these tests, tags left out. Where a name states a change or a piece, a line headed by the entry shows the natural chain unless it says otherwise.
UniProt P62993, whole entry, looked up: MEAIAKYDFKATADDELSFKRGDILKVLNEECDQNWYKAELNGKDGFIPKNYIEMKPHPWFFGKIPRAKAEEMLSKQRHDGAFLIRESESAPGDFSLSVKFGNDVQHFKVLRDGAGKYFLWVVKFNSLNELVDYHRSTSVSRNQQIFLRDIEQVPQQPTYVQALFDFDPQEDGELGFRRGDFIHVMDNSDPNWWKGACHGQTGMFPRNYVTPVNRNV
UniProt Q13098: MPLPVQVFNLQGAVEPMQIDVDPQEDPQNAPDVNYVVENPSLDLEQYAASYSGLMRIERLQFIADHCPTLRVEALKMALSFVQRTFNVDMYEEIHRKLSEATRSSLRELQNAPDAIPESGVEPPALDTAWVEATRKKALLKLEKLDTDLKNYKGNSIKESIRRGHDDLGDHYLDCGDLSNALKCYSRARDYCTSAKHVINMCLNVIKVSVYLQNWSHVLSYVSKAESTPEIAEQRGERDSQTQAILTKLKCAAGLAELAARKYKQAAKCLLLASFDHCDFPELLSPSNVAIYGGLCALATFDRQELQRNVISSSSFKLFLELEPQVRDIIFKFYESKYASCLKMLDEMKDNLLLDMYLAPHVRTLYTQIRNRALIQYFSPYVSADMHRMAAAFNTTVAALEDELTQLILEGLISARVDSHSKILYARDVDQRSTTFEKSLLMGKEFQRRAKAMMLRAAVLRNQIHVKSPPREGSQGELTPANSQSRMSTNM
UniProt Q7Z2K8: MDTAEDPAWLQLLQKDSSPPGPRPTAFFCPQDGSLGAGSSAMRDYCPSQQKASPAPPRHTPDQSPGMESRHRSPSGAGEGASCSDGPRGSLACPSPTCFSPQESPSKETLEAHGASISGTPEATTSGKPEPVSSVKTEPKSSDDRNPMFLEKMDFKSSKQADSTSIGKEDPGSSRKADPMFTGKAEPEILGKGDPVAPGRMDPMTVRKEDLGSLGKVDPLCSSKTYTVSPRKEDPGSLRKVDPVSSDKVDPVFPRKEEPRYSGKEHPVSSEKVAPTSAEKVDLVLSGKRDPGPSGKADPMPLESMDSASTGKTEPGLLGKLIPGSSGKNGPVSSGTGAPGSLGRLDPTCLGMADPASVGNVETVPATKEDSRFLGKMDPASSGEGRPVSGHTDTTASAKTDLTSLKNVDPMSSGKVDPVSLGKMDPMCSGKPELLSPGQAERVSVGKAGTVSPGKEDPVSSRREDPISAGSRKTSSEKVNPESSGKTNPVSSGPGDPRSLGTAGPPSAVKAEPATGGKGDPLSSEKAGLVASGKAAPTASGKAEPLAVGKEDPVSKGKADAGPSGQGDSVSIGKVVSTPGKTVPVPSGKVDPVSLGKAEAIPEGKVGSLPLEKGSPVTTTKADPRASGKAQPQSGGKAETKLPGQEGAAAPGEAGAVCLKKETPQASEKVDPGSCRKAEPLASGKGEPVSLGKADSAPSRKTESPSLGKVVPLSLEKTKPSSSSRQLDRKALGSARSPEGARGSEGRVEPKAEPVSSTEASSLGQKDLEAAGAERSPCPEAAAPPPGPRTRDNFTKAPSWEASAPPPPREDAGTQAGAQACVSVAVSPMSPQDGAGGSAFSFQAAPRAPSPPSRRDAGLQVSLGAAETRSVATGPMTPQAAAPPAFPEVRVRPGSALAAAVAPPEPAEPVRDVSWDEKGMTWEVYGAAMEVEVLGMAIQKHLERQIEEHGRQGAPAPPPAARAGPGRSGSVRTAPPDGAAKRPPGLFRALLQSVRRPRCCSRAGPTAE
UniProt O14908: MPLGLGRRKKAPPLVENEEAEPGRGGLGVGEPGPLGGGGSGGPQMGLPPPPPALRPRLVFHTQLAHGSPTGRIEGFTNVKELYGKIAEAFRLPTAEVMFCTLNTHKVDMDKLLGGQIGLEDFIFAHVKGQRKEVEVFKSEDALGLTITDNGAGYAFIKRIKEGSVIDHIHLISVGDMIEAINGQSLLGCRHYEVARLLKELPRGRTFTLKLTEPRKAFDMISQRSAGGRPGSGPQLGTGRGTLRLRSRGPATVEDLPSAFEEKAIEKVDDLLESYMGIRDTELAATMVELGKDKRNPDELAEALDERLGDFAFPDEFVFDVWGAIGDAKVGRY
UniProt P25098: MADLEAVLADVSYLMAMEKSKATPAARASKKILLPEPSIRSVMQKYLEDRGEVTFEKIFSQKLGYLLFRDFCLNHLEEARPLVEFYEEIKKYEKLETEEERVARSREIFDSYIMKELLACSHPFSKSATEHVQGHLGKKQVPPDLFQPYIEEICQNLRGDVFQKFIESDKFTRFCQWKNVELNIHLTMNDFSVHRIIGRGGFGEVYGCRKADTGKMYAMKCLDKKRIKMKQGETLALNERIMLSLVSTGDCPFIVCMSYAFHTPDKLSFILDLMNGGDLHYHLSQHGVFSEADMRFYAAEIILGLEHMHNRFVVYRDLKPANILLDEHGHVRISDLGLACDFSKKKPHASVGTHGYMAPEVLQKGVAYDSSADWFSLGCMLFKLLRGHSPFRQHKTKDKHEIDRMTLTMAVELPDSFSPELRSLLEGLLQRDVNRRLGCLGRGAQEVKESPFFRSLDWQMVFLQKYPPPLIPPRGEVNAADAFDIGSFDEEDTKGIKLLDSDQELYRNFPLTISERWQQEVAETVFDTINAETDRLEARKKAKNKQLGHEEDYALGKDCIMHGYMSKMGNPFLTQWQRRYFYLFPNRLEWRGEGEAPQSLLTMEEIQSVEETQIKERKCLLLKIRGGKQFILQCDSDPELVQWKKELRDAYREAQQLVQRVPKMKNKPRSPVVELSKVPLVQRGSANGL
UniProt P32189: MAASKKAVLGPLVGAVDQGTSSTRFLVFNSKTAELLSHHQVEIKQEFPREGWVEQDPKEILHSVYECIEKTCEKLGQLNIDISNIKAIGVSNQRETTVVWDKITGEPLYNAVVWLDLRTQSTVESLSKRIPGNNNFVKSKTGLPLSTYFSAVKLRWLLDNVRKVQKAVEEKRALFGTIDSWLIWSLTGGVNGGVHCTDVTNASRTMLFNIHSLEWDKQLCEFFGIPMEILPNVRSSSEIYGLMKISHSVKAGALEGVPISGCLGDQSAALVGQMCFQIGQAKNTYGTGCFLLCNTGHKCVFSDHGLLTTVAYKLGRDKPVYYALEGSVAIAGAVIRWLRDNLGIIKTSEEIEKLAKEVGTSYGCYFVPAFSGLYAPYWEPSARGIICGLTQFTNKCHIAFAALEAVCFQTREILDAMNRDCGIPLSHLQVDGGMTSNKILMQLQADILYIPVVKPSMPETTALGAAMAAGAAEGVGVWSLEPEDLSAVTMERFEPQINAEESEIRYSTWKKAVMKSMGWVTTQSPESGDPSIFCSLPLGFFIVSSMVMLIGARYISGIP
UniProt O95249: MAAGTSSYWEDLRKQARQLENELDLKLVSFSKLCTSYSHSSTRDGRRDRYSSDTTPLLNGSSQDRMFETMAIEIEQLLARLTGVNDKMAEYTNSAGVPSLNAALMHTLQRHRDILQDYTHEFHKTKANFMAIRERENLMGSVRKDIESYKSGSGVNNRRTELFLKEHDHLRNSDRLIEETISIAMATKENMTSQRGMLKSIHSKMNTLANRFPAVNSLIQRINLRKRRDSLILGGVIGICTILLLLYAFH
UniProt Q9Y2X7: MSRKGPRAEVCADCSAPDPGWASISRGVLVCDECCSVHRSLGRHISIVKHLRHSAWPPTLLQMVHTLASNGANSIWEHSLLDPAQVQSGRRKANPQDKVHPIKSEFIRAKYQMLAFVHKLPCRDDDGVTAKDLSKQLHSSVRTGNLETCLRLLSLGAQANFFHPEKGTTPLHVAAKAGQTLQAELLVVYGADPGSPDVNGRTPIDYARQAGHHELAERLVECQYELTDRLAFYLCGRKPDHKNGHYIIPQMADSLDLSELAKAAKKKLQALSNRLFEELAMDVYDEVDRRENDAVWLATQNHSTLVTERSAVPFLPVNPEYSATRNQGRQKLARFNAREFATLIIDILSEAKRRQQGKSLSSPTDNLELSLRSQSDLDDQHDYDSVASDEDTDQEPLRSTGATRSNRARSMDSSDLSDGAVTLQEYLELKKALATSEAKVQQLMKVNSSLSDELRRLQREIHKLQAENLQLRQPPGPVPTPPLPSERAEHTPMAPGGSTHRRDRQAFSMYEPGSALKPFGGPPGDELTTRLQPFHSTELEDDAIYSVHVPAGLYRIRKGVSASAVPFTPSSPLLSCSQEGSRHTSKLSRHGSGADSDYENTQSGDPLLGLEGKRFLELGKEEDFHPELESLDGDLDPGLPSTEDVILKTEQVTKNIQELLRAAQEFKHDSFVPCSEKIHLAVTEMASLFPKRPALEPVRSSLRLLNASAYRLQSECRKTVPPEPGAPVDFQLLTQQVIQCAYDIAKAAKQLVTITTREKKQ
UniProt Q9NZD2: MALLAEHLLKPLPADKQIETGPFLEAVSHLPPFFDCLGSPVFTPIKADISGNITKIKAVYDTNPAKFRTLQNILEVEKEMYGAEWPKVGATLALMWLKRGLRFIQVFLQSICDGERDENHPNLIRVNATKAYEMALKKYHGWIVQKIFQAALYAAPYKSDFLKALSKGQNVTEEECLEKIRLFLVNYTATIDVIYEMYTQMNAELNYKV
UniProt Q4ZG55: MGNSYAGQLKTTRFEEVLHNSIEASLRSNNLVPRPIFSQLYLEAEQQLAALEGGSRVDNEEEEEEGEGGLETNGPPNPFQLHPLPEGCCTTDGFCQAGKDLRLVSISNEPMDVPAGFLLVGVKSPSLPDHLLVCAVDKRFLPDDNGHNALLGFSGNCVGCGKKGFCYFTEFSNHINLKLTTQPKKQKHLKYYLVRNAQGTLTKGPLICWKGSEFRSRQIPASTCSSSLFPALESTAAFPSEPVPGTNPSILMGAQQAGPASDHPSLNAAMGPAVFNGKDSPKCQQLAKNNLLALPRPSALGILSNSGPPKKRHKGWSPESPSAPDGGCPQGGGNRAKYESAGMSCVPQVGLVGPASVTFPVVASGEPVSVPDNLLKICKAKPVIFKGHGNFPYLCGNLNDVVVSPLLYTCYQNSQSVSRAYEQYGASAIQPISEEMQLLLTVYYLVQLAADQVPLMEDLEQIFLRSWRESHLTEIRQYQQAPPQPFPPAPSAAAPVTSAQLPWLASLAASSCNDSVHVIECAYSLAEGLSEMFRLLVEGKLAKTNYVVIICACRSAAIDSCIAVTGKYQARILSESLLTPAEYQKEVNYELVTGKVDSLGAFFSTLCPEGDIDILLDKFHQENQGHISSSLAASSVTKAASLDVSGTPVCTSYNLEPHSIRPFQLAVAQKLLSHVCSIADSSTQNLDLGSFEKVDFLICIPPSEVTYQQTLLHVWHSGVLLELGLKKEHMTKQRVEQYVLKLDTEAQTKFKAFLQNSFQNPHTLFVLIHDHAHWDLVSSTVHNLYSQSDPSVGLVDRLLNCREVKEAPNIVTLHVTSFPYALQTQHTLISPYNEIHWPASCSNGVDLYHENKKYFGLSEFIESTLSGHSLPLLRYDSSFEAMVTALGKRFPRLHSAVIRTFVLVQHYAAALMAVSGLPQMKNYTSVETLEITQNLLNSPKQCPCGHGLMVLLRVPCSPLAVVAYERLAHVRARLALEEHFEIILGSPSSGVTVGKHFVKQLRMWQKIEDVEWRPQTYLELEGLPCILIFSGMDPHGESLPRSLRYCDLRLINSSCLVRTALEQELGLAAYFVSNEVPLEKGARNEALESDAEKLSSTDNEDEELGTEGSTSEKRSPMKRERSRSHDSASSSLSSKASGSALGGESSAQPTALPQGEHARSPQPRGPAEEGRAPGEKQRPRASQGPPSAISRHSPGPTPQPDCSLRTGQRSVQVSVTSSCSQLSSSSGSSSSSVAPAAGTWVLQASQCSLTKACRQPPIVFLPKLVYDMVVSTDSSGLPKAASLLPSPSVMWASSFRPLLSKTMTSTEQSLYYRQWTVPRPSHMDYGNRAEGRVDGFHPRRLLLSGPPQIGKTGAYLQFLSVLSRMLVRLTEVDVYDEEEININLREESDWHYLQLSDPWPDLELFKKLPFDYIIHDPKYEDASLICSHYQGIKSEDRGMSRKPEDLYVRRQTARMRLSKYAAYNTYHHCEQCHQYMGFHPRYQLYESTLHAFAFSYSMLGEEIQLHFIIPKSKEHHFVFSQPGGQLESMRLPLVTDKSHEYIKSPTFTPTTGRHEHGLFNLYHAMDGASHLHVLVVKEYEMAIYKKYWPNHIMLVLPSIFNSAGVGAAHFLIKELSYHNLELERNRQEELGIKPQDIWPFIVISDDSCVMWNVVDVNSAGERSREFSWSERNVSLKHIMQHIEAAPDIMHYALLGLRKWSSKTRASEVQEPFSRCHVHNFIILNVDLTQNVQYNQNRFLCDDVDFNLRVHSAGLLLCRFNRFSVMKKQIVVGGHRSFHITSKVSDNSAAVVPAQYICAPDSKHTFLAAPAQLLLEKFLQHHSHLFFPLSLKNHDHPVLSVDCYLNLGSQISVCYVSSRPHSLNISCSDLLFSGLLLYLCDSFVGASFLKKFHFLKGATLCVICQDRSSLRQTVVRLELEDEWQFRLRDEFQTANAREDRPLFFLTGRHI

Assays:
Assay in all cases: log2 fold change, soluble protein after heating vs DMSO (PISA); higher = thermal stabilisation; K562 cells, 10 uM, 30 min; active = over 0.2 and 3.5 SD of the protein, either way, in both replicates (recomputed)
[1] = compound: NC(=O)Nc1cc(-c2cccc(F)c2)sc1C(=O)N[C@H]1CCCNC1
Outline: (§1)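 K562 cells (2×10^6 cells/mL) were treated with 10 μM compound for 30 min, and aliquots were heated for 3 min over 48°C-58°C. Pooled aliquots were extracted in PBS with 0.5% NP-40 at 4°C, and the supernatant after 21,000xg for 90 min was measured by TMTpro 16plex LC-MS/MS with channel sums equalised. Reported thermal stability, relative to control samples and from duplicates, is a log2 fold change.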

[2] = compound: NC(=O)c1cnc(N[C@@H]2CCCC[C@@H]2N)nc1Nc1cccc(-n2nccn2)c1
Outline: as §1

[3] = compound: NC1(c2ccc(-c3nc4ccn5c(=O)[nH]nc5c4cc3-c3ccccc3)cc2)CCC1
Outline: as §1

[4] = compound: NCC(=O)Nc1ccc(-n2nc(C(F)(F)F)cc2-c2ccc3c(ccc4ccccc43)c2)cc1
Outline: as §1

entinostat = compound: Nc1ccccc1NC(=O)c1ccc(CNC(=O)OCc2cccnc2)cc1 [entinostat]
Outline: as §1

vorinostat = compound: O=C(CCCCCCC(=O)Nc1ccccc1)NO [vorinostat]
Outline: as §1

citarinostat = compound: O=C(CCCCCCNC(=O)c1cnc(N(c2ccccc2)c2ccccc2Cl)nc1)NO [citarinostat]
Outline: as §1

silmitasertib = compound: O=C(O)c1ccc2c(c1)nc(Nc1cccc(Cl)c1)c1ccncc12 [silmitasertib]
Outline: as §1

[5] = compound: O=C1NC(=O)C(c2cnc3ccccn23)=C1c1cn2c3c(cc(F)cc13)CN(C(=O)N1CCCCC1)CC2
Outline: as §1

[6] = compound: c1cc(OCCN2CCCCC2)cc(-c2n[nH]c3ccc(-c4nnc[nH]4)cc23)c1
Outline: as §1

entospletinib = compound: c1cn2cc(-c3ccc4cn[nH]c4c3)nc(Nc3ccc(N4CCOCC4)cc3)c2n1 [entospletinib]
Outline: as §1

Measured: log2 fold change

GMPPB isoform 2 (UniProt Q9Y5P6)
inactive: [1] 0.027 | [2] -0.018 | [3] -0.016 | [4] -0.006 | entinostat 0.038 | vorinostat 0.027 | citarinostat 0.042 | silmitasertib 0.013 | [5] -0.023 | [6] -0.026 | entospletinib -0.067

GRB2 (UniProt P62993)
inactive: [1] 0.026 | [2] -0.008 | [3] -0.041 | [4] -0.008 | entinostat -0.022 | vorinostat 0.007 | citarinostat 0.033 | silmitasertib -0.002 | [5] -0.017 | [6] -0.057 | entospletinib -0.028

GMFG (UniProt O60234)
inactive: [1] -0.019 | [2] -0.088 | [3] -0.085 | [4] -0.024 | entinostat 0.008 | vorinostat -0.062 | citarinostat 0.012 | silmitasertib 0.016 | [5] -0.074 | [6] -0.054 | entospletinib 0.07

GNE isoform 2 (UniProt Q9Y223)
inactive: [1] 0.018 | [2] -0.055 | [3] -0.105 | [4] 0.003 | entinostat -0.065 | vorinostat 0.032 | citarinostat 0.013 | silmitasertib 0.023 | [5] 0.02 | [6] -0.05 | entospletinib 0.021

GPS1 isoform 7 (UniProt Q13098)
inactive: [1] -0.012 | [2] 0.01 | [3] -0.062 | [4] 0.033 | entinostat 0.003 | vorinostat 0.002 | citarinostat 0.024 | silmitasertib 0.008 | [5] -0.028 | [6] -0.009 | entospletinib -0.002

GINS3 (UniProt Q9BRX5)
inactive: [1] -0.159 | [2] -0.038 | [3] -0.078 | [4] -0.057 | entinostat 0.014 | vorinostat -0.039 | citarinostat 0.01 | silmitasertib -0.052 | [5] -0.081 | [6] -0.013 | entospletinib 0.001

GPI (UniProt P06744)
inactive: [1] -0.009 | [2] -0.012 | [3] -0.013 | [4] 0.001 | entinostat 0.004 | vorinostat -0.001 | citarinostat -0.01 | silmitasertib -0.046 | [5] -0.054 | [6] 0.004 | entospletinib -0.063

GRSF1 (UniProt Q12849)
inactive: [1] 0.025 | [2] -0.077 | [3] -0.098 | [4] -0.009 | entinostat 0.084 | vorinostat 0.101 | citarinostat 0.11 | silmitasertib 0.148 | [5] 0.207 | [6] -0.171 | entospletinib 0.12

GPHN isoform 2 (UniProt Q9NQX3)
inactive: [1] -0.02 | [2] 0.006 | [3] 0.043 | [4] 0.004 | entinostat -0.033 | vorinostat -0.025 | citarinostat -0.049 | silmitasertib 0.028 | [5] -0.025 | [6] 0.06 | entospletinib 0.026

GOLGA5 (UniProt Q8TBA6)
inactive: [1] 0 | [2] 0 | [3] 0.022 | [4] 0.002 | entinostat -0.015 | vorinostat 0.001 | citarinostat 0.052 | silmitasertib 0.005 | [5] -0.035 | [6] 0.002 | entospletinib 0.006

GRAP2 (UniProt O75791)
inactive: [1] -0.002 | [2] -0.105 | [3] -0.094 | [4] -0.102 | entinostat -0.046 | vorinostat 0.106 | citarinostat 0.003 | silmitasertib 0.1 | [5] -0.087 | [6] 0.025 | entospletinib 0.02

GLG1 isoform 2 (UniProt Q92896)
inactive: [1] 0 | [2] 0.023 | [3] -0.063 | [4] 0.054 | entinostat 0.008 | vorinostat 0.011 | citarinostat 0.026 | silmitasertib 0.025 | [5] -0.011 | [6] -0.001 | entospletinib -0.016

GMPR (UniProt P36959)
inactive: [1] 0.004 | [2] 0.015 | [3] -0.003 | [4] 0.021 | entinostat -0.005 | vorinostat 0.026 | citarinostat 0.041 | silmitasertib -0.01 | [5] -0.017 | [6] -0.044 | entospletinib 0.009

GNPDA2 (UniProt Q8TDQ7)
inactive: [1] 0.05 | [2] 0.079 | [3] -0.02 | [4] -0.021 | entinostat -0.037 | vorinostat -0.068 | citarinostat 0.004 | silmitasertib -0.02 | [5] -0.058 | [6] 0.004 | entospletinib 0.004

GPRIN1 (UniProt Q7Z2K8)
inactive: [1] -0.048 | [2] 0.082 | [3] 0.056 | [4] 0.02 | entinostat -0.047 | vorinostat 0.004 | citarinostat -0.067 | silmitasertib -0.004 | [5] -0.026 | [6] 0.026 | entospletinib 0.018

GIPC1 (UniProt O14908)
inactive: [1] -0.036 | [2] -0.031 | [3] -0.086 | [4] -0.06 | entinostat -0.016 | vorinostat 0.014 | citarinostat -0.039 | silmitasertib 0.101 | [5] 0.034 | [6] -0.154 | entospletinib 0.052

GRK2 (UniProt P25098)
inactive: [1] 0.137 | [2] -0.02 | [3] -0.084 | [4] -0.018 | entinostat 0.016 | vorinostat 0.016 | citarinostat 0.03 | silmitasertib 0.009 | [5] -0.022 | [6] -0.02 | entospletinib -0.01

GK (UniProt P32189)
inactive: [1] 0.004 | [2] 0.002 | [3] -0.033 | [4] 0.007 | entinostat -0.009 | vorinostat -0.008 | citarinostat 0.009 | silmitasertib 0.033 | [5] -0.014 | [6] -0.023 | entospletinib 0.006

GPBP1 isoform 2 (UniProt Q86WP2)
inactive: [1] -0.038 | [2] -0.049 | [3] -0.11 | [4] 0.064 | entinostat -0.014 | vorinostat -0.018 | citarinostat -0.037 | silmitasertib 0.029 | [5] -0.03 | [6] -0.099 | entospletinib -0.064

GMPS (UniProt P49915)
inactive: [1] -0.018 | [2] -0.049 | [3] -0.172 | [4] -0.027 | entinostat 0.014 | vorinostat 0.047 | citarinostat 0.064 | silmitasertib -0.068 | [5] -0.029 | [6] -0.005 | entospletinib -0.025

GOLGA7 (UniProt Q7Z5G4)
inactive: [1] -0.088 | [2] -0.001 | [3] -0.031 | [4] 0.008 | entinostat 0.001 | vorinostat -0.084 | citarinostat -0.014 | silmitasertib 0.04 | [5] 0 | [6] -0.053 | entospletinib 0.035

Copied from the listing (2 entries):
GMPS (UniProt P49915)
inactive: [1] -0.018 | [2] -0.049 | [3] -0.172 | [4] -0.027 | entinostat 0.014 | vorinostat 0.047 | citarinostat 0.064 | silmitasertib -0.068 | [5] -0.029 | [6] -0.005 | entospletinib -0.025

GOLGA7 (UniProt Q7Z5G4)
inactive: [1] -0.088 | [2] -0.001 | [3] -0.031 | [4] 0.008 | entinostat 0.001 | vorinostat -0.084 | citarinostat -0.014 | silmitasertib 0.04 | [5] 0 | [6] -0.053 | entospletinib 0.035

Remaining list, next part:

GPR107 (UniProt Q5VW38)
inactive: [1] -0.013 | [2] 0.034 | [3] 0.002 | [4] 0.034 | entinostat -0.017 | vorinostat -0.012 | citarinostat -0.042 | silmitasertib 0.023 | [5] 0.052 | [6] -0.056 | entospletinib 0.002

GOSR1 (UniProt O95249)
inactive: [1] 0.015 | [2] -0.068 | [3] -0.075 | [4] -0.036 | entinostat 0.016 | vorinostat -0.043 | citarinostat 0.034 | silmitasertib 0.002 | [5] -0.031 | [6] -0.035 | entospletinib -0.023

GIT1 isoform 3 (UniProt Q9Y2X7)
inactive: [1] -0.004 | [2] -0.08 | [3] -0.116 | entinostat 0.147 | citarinostat 0.08 | silmitasertib 0.068 | [5] -0.029 | [6] -0.03 | entospletinib 0.265

GPR108 (UniProt Q9NPR9)
inactive: [1] -0.044 | [2] 0.032 | [3] -0.114 | [4] -0.074 | entinostat -0.022 | citarinostat -0.004 | silmitasertib 0.022 | [5] -0.02 | [6] -0.083 | entospletinib 0.075

GLTP (UniProt Q9NZD2)
inactive: [1] -0.162 | [2] 0.242 | [3] -0.03 | [4] 0.023 | entinostat 0.033 | vorinostat -0.063 | citarinostat -0.174 | silmitasertib -0.046 | [6] -0.081 | entospletinib 0.083

GREB1 (UniProt Q4ZG55)
inactive: [1] 0.029 | [2] -0.103 | [4] -0.002 | entinostat 0.012 | [5] 0.036

GRN (UniProt P28799)
inactive: [1] 0.011 | [2] 0.027 | [3] 0.101 | [4] 0.013 | entinostat -0.05 | vorinostat -0.057 | silmitasertib -0.029 | [5] 0.002
